# No constants are given. Whether binding was seen depends on the method and setting. Some entries that bind do so weakly or less than the wild type.
# Protein sequences, listed by entry. Tags and fused reporters are not part of them. Lines headed by an entry give the natural chain unless they say otherwise; changes in a name come on top.
# UniProt P08514: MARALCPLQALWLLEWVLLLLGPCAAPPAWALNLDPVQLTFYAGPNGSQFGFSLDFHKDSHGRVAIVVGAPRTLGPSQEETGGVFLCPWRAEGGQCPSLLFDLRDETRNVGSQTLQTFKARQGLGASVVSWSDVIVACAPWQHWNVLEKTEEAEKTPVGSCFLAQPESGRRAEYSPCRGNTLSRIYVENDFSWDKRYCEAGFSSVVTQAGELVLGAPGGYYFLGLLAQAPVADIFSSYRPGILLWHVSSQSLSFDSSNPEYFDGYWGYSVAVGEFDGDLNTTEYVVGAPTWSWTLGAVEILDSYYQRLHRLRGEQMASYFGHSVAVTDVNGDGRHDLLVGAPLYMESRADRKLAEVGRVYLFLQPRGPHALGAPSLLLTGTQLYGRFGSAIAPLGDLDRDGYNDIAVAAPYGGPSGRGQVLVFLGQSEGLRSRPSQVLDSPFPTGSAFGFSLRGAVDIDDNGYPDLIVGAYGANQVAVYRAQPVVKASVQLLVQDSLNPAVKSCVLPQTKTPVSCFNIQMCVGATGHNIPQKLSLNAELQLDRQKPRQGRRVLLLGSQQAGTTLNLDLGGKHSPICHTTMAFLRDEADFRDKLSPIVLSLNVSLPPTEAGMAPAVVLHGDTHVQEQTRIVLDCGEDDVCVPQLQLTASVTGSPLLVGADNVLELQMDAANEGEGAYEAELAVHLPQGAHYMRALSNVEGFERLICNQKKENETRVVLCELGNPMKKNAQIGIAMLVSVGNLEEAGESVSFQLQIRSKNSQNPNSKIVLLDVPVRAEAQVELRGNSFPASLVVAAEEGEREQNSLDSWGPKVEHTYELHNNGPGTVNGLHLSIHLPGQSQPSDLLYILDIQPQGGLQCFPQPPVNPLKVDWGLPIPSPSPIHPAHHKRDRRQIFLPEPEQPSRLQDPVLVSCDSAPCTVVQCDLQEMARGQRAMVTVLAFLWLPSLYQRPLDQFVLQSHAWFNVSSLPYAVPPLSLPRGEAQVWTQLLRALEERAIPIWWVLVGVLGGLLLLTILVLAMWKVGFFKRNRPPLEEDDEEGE
# UniProt P05106: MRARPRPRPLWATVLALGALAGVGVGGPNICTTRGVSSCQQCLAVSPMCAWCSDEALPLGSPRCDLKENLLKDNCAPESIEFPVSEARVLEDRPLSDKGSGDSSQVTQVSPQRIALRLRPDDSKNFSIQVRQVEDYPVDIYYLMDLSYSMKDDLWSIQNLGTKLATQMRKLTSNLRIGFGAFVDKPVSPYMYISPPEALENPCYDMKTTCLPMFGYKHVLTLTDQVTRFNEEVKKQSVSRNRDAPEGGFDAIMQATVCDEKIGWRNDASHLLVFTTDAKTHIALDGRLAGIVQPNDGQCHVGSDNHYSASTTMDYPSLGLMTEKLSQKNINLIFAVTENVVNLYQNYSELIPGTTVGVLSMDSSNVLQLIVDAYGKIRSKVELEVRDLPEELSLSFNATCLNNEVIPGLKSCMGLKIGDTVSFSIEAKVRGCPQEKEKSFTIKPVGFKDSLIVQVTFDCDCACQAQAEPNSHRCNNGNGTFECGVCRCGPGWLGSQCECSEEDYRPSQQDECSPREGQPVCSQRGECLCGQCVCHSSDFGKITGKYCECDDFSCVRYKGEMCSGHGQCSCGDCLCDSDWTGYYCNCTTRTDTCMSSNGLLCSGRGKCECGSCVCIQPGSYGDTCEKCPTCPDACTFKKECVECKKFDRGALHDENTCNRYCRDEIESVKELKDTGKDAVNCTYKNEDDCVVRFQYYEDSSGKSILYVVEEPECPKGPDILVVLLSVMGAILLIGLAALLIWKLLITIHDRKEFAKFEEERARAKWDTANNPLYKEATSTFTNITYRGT
# B1: phycoerythrin-labeled soluble endoglin (PE-sEng) (domain or fragment, UniProt P17813 26-586)
# chain: ETVHCDLQPVGPERGEVTYTTSQVSKGCVAQAPNAILEVHVLFLEFPTGPSQLELTLQASKQNGTWPREVLLVLSVNSSVFLHLQALGIPLHLAYNSSLVTFQEPPGVNTTELPSFPKTQILEWAAERGPITSAAELNDPQSILLRLGQAQGSLSFCMLEASQDMGRTLEWRPRTPALVRGCHLEGVAGHKEAHILRVLPGHSAGPRTVTVKVELSCAPGDLDAVLILQGPPYVSWLIDANHNMQIWTTGEYSFKIFPEKNIRGFKLPDTPQGLLGEARMLNASIVASFVELPLASIVSLHASSCGGRLQTSPAPIQTTPPKDTCSPELLMSLIQTKCADDAMTLVLKKELVAHLKCTITGLTFWDPSCEAEDRGDKFVLRSAYSSCGMQVSASMISNEAVVNILSSSSPQRKKVHCLNMDSLSFQLGLYLSPHFLQASNTIEPGQQSFVQVRVSPSVSEFLLQLDSCHLDLGPEGGTVELIQGRAAKGNCVSLLSPSPEGDPRFSFLLHFYTVPIPKTGTLSCTVALRPKTGSQDQEVHRTVFMRLNIISPDLSGCTSKG
# modifications: phycoerythrin label (site not stated)
# B2: soluble endoglin (sEng; extracellular domain Glu26-Gly586) (domain or fragment, UniProt P17813 26-586)
# chain: B1 chain
# Molecular target: human αIIbβ3 integrin on CHO cells (CHO-αIIbβ3) (human) (UniProt P08514+P05106)
# Assay: flow cytometry on cells; CHO transfectants with or without 10 nM PMA, incubated 30-60 min with PE-sEng; specificity tested with a tenfold molar excess of unlabeled sEng; parental CHO as control; only the binder purified
binder,measurement,value
B1,binding,binds
B2,binding,binds

# Source: article PMC5843676
